Data from PubChem BioAssay AID743402 (Broad Institute, 2014).
In all, about 1,200 compounds went through this assay and about 140 (12%) were called active.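 How the source made its calls: active means fitted curve falls past -35% activity change at a dose under twice the top valid dose, in every replicate test; inconclusive means replicate tests disagree on the call; inactive means the rest, including activity in the opposite direction.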 The list lacks most of the strong results.

Test: CFTR-F508del correctors, dose response, FRT cells, YFP quenching, cherry-pick (AID 743402);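 further: compounds act as correctors raising surface CFTR-F508del before acute activation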
Conditions: FRT CFTR-F508del YFP iodide quenching, 24 h, channel opened with forskolin and a potentiator; at 26 µM (top of the series) unless noted

Activity change, negative = more quenching (active), inactive:
COc1cccc(CNC(=O)CSc2nc3ccc(C)cc3[nH]2)c1 -3.33%
COC(=O)C1CC23C=CCN4CCC5(c6ccccc6NC15C2C)C43 (stereo not given) 10%
CCOC(=O)c1sc2nc(Cc3ccc(Cl)cc3)[nH]c(=S)c2c1C 15.6%
COc1ccc(C(=O)c2cc([N+](=O)[O-])ccc2N2CCN(C)CC2)cc1 9.79%
COc1ccc(NC(=O)c2nc(C)c(C3(C)CC(c4ccccc4)=NO3)s2)cc1 (stereo not given) 14.8%
COc1ccccc1Nc1c2c(nc3ccccc13)CCC2 35.6%
CC1CCN(C(=O)C2COc3ccccc3O2)CC1 (stereo not given) 3.33%
NCC(=O)NNC(=O)OCC1c2ccccc2-c2ccccc21 0%
Cc1ccc(C)c(CSc2nc3[nH]ncc3c(=O)[nH]2)c1 5.42%
Cc1c(CCC(=O)O)c(=O)oc2c(C)c(OCc3ccccc3Cl)ccc12 6.67%
O=C(c1cc(-c2ccncc2)nc2c(Cl)cccc12)N1CCN(c2ccccc2F)CC1 16.2%
C=CC[C@@H](CC(=O)N(CCO)Cc1ccccc1)C(=O)N[C@H](COC(=O)[C@H](CC=C)CC(=O)OC(C)(C)C)Cc1c[nH]c2ccccc12 16.2%
NC(=O)N=Nc1c2[nH]c3ccccc3nc-2c2ccccc12 -29.2%
Cc1cc(/C=N/n2c(COc3ccccc3C)nc3ccccc3c2=O)c(O)c([N+](=O)[O-])c1 0%
O=C(CN1C(=O)NC2(CCCCCCC2)C1=O)Nc1ccc(Br)cc1 6.67%
CCCNC(=O)N1[C@H](C#N)[C@H](c2ccc(C#Cc3ccc(F)cc3)cc2)[C@@H]1CO 8.74%
CCOC(=O)c1c(NC(=O)C2c3ccccc3Oc3ccccc32)sc(C(C)=O)c1C -10.7%
CCN(C(=O)CSc1nc2ccccc2c(=O)n1-c1ccccc1F)C1CCS(=O)(=O)C1 (stereo not given) -6.67%
CCN(C(=O)CSc1nnc(C)n1-c1ccc(C)cc1)c1c(N)n(Cc2ccccc2)c(=O)[nH]c1=O 6.46%
COc1ccc(NC(=O)c2ccc(NC(=O)c3nc4nccc(C)n4n3)cc2)cc1 0%
S=C(NCCc1ccccc1)Nc1nccs1 3.57%
COC(=O)CNc1cc(S(=O)(=O)N2CCCCC2)ccc1Oc1ccc(C(=O)OC)cc1 8.28%
CC1(c2ccc3ccccc3c2)CCC(=O)O1 (stereo not given) 13.3%
Cc1nc(/N=C(\N)NC(=O)NC2CCCCC2)nc2ccccc12 -21.3%
C[C@@H]1CN([C@H](C)CO)C(=O)c2cc(NC(=O)Cc3ccccc3)ccc2O[C@@H]1CN(C)S(C)(=O)=O 17% [at 23.5 µM]
CCCCn1cnc2c(c(CC#N)nn2-c2ccccc2)c1=N 3.33%
N#Cc1c(-c2ccc(F)cc2)c(-c2ccc(F)cc2)nn(CCO)c1=O 20%
COC(=O)C[C@@H]1CC[C@@H]2[C@H](COc3ccc(NC(=O)c4ccc(C(F)(F)F)cc4)cc3C(=O)N2C)O1 3.57%
Cc1ccc(S(=O)(=O)N2CCOCC2)cc1NC(=O)CSc1nnc(COc2ccccc2F)n1N 20%
CC12CCC3c4ccc(O)cc4CCC3C1CCC2=O (stereo not given) -3.33%
COc1cc2c(C#CCCO)c(-c3ccsc3)oc(=O)c2cc1OC -16%
CCCCn1nc(NC(=O)CC)c2cc3cc(OC)ccc3nc21 10%
Cc1cc(Br)cc(/C=N/NC(=O)c2ccc3c(c2)OCO3)c1O 13.3%
CCN1CCN(c2cc(C)c3cc(NC(=O)c4ccc(OC)c(OC)c4)ccc3n2)CC1 15.6%
O=C(CCN1CCCCC1)N1CCc2c([nH]c3ccccc23)C1c1cccnc1 (stereo not given) 3.33%
COc1cccc(C#Cc2ccc3c(c2)O[C@@H](CN(C)C(=O)c2ccccn2)[C@H](C)CN([C@@H](C)CO)S3(=O)=O)c1 6.91%
CCc1cc(-c2nnn(CCC3COCCO3)c2CC)ccc1-c1cn(Cc2ccc3ccccc3c2)nn1 (stereo not given) 6.67%
Cc1nn(S(=O)(=O)c2ccc(Cl)cc2)c(C)c1Sc1ccc([N+](=O)[O-])cc1 3.33%
CCN1C(=O)c2cccc3c(S(=O)(=O)N(C(C)=O)c4ccc(OC(C)=O)cc4)ccc1c23 4.17%
CCOc1cc(N2CCOCC2)c(OCC)cc1NC(=O)CN1C(=O)NC2(CCCCC2)C1=O 7.14%
O=c1cc(-c2ccccc2)[nH]c2ccc(F)cc12 9.79%
Fc1ccc2nc(C3CCN(Cc4nc(CC5CC5)no4)CC3)[nH]c2c1 13.3%
CC(C)(C)C1COc2ccccc2N1C(=O)c1cccc(Cl)c1 (stereo not given) 0%
NS(=O)(=O)c1ccc(Cl)c(S(N)(=O)=O)c1 3.33%
CCOc1ccc(NS(=O)(=O)c2cc(NC(=O)CCNC(=O)c3ccco3)ccc2OC)cc1 10%
COc1cc(-c2nccc3cc4c(cc23)OCO4)cc(OC)c1OC -6.25%
CCNC(=O)C[C@@H]1C=C[C@@H](NC(=O)NC2CCCCC2)[C@H](CO)O1 0%
O=C(N/N=C/c1c(O)ccc2ccccc12)c1ccc(CO)nc1 -6.25%
O=C(NCc1ccccc1)C1Cc2c(-c3ccc(Cl)cc3)ccnc2O1 (stereo not given) -6.67%
COc1ccccc1CNC(=O)Nc1nc(C(N)Cc2ccc(Cl)cc2)cs1 (stereo not given) -13.3%
CC1CN(S(=O)(=O)c2ccc(C(=O)Nc3ccccc3F)cc2)CC(C)O1 (stereo not given) 3.12%
CC(OC(=O)c1cccs1)C(=O)NC1CCCCC1C (stereo not given) -3.12%
COc1ccccc1N=C1SC(C(=O)Nc2cccc(Cl)c2Cl)C(N)=C1C(N)=O (stereo not given) 9.13%
CN(c1ccc(OCCOc2ccccc2Cl)cc1)S(=O)(=O)c1ccccc1 6.67%
Cc1ccc(-n2cc(-c3ccccc3)c3c(N4CCOCC4)ncnc32)cc1 27.8%
O=C(NCc1ccccc1)C1Cc2c(-c3cccc(F)c3)ccnc2O1 (stereo not given) 0%
C1CCC(C(CC2CCCCN2)C2CCCCC2)CC1 (stereo not given) -23.3%
CN(C)CCn1c2ccccc2c2nc3ccc([N+](=O)[O-])cc3cc21 -32.1%
Cc1ccc(-c2csc(Nc3ccccn3)n2)cc1 -29%
COc1ccc(CCC(=O)N2CCN(S(=O)(=O)c3ccc(OC(F)(F)F)cc3)CC2)cc1 13.3%
NS(=O)(=O)c1ccc(CNc2ccc3ccccc3n2)cc1 3.12%
O=C(Nc1ccn(CCCNC2CCN(Cc3ccccc3)CC2)c(=O)n1)OCc1ccccc1 12.5%
COc1ccccc1NS(=O)(=O)c1cc(N=N/C(C(=O)Nc2ccc(Cl)cc2)=C(/C)O)ccc1C 3.33%
CN(CC1CCCO1)S(=O)(=O)c1ccc(C(=O)Nc2nnc(-c3ccccc3)o2)cc1 (stereo not given) -1.85%
COc1cc(-c2noc(C)c2C#Cc2ccccn2)cc(OC)c1OC -6.25%
O=C(c1ccc(S(=O)(=O)NCC2CCCO2)cc1)N1CCN(c2cccc(Cl)c2)CC1 (stereo not given) 13.3%
Cc1cc2oc(=O)cc(-c3ccccc3)c2c(C)c1-c1ccc(O)cc1 -14.3%
CC(=O)Nc1ccc(S(=O)(=O)Nc2cccc(-c3nc4cc(C)ccc4o3)c2)cc1 -6.67%
COc1cccc(/C=N/NC(=O)C(=O)N/N=C/c2cccc(OC)c2O)c1O -12.2%
CS(=O)(=O)N1CC(=O)N2[C@H](C1)[C@H](c1ccc(C#Cc3ccc(F)cc3)cc1)[C@@H]2CO -3.12%
COc1cccc(C2c3cc4c(cc3OC(NNC(N)=O)C2C)OCO4)c1O (stereo not given) 3.12%
O=C1C=CC(O)(c2cc(=O)c3c(O)cc(O)cc3o2)C=C1 10%
Cc1ccc(C)c(C2NC(=O)c3ccccc3N2)c1 (stereo not given) -3.85%
CC(=O)Nc1cccc(NC(=O)CN2c3cccc4cccc(c34)S2(=O)=O)c1 0%
CC1=C(C(=O)N(C)C)CC(CC(=O)NCc2cccc3ccccc23)C(=O)N1CCCN1CCCC1=O (stereo not given) 21.4%
O=C(Cc1ccccc1)N1CC(=O)N2[C@H](CO)[C@@H](c3ccc(-c4ccccc4)cc3)[C@@H]2C1 -12.3%
O=C(c1cccc(S(=O)(=O)N2CCOCC2)c1)N1CCCC(C(F)(F)F)C1 (stereo not given) 9.58%
CCc1ccc(OCc2n[nH]c(=S)n2C(C)CCCC(C)C)cc1 (stereo not given) 6.46%
CC(C)NC(=O)NC(=O)COC(=O)c1ccc(S(=O)(=O)Nc2ccccc2)cc1 0%
COc1ccc(NC(=O)N(C)C[C@H]2Oc3c(cccc3N(C)C)C(=O)N([C@H](C)CO)C[C@H]2C)cc1 -3.12%
COc1ccc(C=NNC(=O)CCCC(=O)NN=Cc2ccc(OC)c(O)c2)cc1O 3.85%
C[C@H]1CN([C@@H](C)CO)S(=O)(=O)c2ccc(C#Cc3ccccc3F)cc2O[C@H]1CN(C)C(=O)c1ccc2c(c1)OCO2 0%
CN(C)C(=O)C(CCN1CCC(O)(c2ccc(Cl)cc2)CC1)(c1ccccc1)c1ccccc1 0%
COc1ccc(Cl)cc1NC(=O)CN(C)CC(=O)Nc1cc(OC)c(OC)c(OC)c1 16.7%
Cc1ccc(CN(C)CC(=O)Nc2cccc([N+](=O)[O-])c2)o1 6.46%

Random excerpt: 4 compounds from above
Activity change, negative = more quenching (active), inactive:
O=C(c1ccc(S(=O)(=O)NCC2CCCO2)cc1)N1CCN(c2cccc(Cl)c2)CC1 (stereo not given) 13.3%
CCc1ccc(OCc2n[nH]c(=S)n2C(C)CCCC(C)C)cc1 (stereo not given) 6.46%
Cc1ccc(-n2cc(-c3ccccc3)c3c(N4CCOCC4)ncnc32)cc1 27.8%
N#Cc1c(-c2ccc(F)cc2)c(-c2ccc(F)cc2)nn(CCO)c1=O 20%
